No constants are given. Whether binding was seen depends on the method and setting. In cells and extracts the contact can be indirect. Some entries that bind do so weakly or less than the wild type. Tags and fused reporters may be left off the sequences shown.
Experiments:
[1] = target: T1, mature mouse GDF-8 with C-terminal FLAG, processed from WT-F-GDF-8 in QM-7 cells (mouse) (UniProt O08689); experiment: co-purification by anti-FLAG affinity chromatography, size fractionation and reporter assay of the complexes
T1 sequence (looked up): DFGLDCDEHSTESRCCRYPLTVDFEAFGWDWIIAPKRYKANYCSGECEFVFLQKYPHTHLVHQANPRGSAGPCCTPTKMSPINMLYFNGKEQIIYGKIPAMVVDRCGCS

[2] = target: T1, mature mouse GDF-8 with C-terminal FLAG, processed from WT-F-GDF-8 in QM-7 cells (mouse); experiment: co-purification on anti-FLAG affinity gel from medium of QM-7 cells transfected with WT GDF-8-FLAG, N-terminal sequencing of the bands

binding [1]: binds
binding [2]: binds
B1: mouse GDF-8 pro-domain without tag, lacking the signal peptide, released from WT-GDF-8-F in QM-7 cells (protein, UniProt O08689 20-267, looked up)
chain: GPVDLNEGSEREENVEKEGLCNACAWRQNTRYSRIEAIKIQILSKLRLETAPNISKDAIRQLLPRAPPLRELIDQYDVQRDDSSDGSLEDDDYHATTETIITMPTESDFLMQADGKPKCCFFKFSSKIQYNKVVKAQLWIYLRPVKTPTTVFVQILRLIKPMKDGTRYTGIRSLKLDMSPGTGIWQSIDVKTVLQNWLKQPESNLGIEIKALDENGHDLAVTFPGPGEDGLNPFLEVKVTDTPKRSRR

From patent EP1147413B1
